The values that follow come from publication PMC5312389.

Protein sequences, listed by entry. Tags and fused reporters are not part of them. Lines headed by an entry give the natural chain unless they say otherwise; changes in a name come on top.
UniProt Q96EB6: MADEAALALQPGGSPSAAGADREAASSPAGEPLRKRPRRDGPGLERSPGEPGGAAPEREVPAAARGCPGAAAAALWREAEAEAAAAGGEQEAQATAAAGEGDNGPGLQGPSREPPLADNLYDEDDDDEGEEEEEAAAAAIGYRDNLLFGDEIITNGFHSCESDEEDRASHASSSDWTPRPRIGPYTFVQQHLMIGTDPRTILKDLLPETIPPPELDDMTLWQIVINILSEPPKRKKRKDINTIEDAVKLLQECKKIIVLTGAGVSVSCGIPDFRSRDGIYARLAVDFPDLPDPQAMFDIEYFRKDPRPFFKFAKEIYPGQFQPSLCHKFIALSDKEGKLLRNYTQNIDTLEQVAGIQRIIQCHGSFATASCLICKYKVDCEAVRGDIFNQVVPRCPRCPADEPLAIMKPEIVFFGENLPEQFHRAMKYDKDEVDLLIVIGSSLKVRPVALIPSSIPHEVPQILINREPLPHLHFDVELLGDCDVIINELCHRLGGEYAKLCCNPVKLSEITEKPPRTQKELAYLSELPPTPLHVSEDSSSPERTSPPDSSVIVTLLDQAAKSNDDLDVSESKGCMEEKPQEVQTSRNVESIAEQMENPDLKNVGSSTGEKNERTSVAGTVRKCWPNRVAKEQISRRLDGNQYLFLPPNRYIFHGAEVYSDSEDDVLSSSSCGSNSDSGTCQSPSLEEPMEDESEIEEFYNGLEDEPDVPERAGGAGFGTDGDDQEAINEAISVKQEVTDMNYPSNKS
UniProt Q09472: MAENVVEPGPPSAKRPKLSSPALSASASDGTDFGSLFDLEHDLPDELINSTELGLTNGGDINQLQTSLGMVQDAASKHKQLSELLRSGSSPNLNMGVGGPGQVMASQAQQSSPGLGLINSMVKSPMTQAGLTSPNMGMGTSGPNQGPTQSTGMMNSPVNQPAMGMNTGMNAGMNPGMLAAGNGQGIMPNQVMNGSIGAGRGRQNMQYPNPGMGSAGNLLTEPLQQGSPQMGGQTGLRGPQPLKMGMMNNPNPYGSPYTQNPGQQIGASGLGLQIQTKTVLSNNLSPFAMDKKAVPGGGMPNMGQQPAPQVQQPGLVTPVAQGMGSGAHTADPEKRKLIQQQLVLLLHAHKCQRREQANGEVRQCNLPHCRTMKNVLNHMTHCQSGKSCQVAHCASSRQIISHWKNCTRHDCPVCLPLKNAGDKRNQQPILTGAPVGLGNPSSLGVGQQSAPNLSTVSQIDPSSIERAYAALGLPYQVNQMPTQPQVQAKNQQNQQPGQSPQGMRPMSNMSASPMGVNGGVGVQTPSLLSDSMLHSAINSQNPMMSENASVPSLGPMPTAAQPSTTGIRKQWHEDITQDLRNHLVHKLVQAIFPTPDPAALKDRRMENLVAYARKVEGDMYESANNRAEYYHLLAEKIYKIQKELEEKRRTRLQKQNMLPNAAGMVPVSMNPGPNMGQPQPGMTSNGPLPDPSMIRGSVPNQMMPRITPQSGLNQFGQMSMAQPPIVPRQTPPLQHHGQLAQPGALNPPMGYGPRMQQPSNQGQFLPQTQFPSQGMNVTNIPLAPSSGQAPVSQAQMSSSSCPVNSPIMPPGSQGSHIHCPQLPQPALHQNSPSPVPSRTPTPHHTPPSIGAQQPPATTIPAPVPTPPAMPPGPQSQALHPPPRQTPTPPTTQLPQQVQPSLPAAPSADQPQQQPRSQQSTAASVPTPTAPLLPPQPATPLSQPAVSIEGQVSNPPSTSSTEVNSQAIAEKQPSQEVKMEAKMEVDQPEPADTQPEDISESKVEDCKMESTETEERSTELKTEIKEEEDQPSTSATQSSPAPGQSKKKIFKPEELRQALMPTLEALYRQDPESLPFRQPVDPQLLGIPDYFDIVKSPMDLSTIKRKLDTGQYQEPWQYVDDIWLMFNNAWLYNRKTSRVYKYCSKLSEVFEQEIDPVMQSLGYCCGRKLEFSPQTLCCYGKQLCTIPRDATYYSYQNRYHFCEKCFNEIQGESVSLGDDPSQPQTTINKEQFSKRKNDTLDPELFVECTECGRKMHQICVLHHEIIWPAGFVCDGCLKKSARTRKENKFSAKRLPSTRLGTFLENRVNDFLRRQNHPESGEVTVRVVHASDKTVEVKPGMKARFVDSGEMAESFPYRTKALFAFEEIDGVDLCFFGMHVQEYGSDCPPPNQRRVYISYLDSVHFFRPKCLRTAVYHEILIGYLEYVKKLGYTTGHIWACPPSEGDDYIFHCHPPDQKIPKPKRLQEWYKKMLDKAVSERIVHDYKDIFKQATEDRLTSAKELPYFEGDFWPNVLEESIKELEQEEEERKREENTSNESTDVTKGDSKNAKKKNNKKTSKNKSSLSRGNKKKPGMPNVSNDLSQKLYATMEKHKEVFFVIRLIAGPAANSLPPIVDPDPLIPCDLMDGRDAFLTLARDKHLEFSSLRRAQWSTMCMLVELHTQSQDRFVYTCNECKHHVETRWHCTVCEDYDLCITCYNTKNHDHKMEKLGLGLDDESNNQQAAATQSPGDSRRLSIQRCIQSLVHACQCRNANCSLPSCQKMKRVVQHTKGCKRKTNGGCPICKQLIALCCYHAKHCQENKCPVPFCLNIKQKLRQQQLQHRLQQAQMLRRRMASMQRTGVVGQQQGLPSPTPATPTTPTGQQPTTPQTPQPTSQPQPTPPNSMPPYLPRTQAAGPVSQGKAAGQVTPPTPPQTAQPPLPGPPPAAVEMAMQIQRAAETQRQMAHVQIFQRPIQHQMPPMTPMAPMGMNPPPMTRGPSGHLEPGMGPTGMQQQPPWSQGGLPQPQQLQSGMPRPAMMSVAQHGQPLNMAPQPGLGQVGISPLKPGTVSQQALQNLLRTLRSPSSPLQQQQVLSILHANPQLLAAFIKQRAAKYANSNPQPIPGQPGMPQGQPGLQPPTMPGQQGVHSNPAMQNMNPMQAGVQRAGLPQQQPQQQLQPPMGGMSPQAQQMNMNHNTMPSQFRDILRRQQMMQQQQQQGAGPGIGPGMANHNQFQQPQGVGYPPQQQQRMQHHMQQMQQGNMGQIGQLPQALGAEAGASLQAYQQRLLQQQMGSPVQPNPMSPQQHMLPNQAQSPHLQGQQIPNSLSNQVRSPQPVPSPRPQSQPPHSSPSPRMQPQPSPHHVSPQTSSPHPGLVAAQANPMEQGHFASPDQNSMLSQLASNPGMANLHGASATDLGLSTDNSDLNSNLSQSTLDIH
UniProt P06493: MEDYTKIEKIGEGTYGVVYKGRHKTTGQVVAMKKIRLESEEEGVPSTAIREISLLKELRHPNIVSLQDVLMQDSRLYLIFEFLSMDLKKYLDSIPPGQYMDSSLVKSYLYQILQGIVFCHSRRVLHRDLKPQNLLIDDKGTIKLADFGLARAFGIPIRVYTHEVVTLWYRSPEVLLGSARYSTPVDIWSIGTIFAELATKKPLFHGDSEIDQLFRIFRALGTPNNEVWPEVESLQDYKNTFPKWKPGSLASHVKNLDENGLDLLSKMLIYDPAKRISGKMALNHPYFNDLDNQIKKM

No constants are given. Whether binding was seen depends on the method and setting. In cells and extracts the contact can be indirect. Some binding calls cover weakened binding; strength is not graded here. For some assays here: Sequences can lack the tags named with a protein.

For assay [1], the target named is T1, FOXM1 (Forkhead box transcription factor M1), endogenous in U2OS cells (human (endogenous in U2OS)) (UniProt Q08050).
T1 sequence: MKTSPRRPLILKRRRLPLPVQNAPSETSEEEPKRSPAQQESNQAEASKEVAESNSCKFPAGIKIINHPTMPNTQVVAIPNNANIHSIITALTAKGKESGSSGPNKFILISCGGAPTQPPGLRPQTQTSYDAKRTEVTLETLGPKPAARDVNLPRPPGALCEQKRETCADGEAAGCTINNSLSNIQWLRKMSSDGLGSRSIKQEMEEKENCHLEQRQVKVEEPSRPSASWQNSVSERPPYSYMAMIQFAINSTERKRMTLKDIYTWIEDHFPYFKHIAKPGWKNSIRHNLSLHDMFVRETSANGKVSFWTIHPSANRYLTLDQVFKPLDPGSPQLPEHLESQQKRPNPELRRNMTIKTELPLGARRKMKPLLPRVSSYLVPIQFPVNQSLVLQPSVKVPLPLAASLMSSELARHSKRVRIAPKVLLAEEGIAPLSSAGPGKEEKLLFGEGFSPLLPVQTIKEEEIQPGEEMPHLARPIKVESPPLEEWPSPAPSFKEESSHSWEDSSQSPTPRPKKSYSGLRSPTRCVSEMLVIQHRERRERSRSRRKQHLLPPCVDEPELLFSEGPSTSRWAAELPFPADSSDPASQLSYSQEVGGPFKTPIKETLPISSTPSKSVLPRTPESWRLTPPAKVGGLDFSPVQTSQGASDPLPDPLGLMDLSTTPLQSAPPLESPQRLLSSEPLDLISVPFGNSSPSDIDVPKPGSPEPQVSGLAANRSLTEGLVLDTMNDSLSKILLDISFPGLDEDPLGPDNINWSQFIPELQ
In words: co-IP; U2OS cell extracts immunoprecipitated with anti-FOXM1, blots of endogenous partners; cells synchronized by double thymidine block and released, or arrested with 300 ng/ml nocodazole for 16 h and released; lysis buffer 50 mM Tris-HCl pH 8.0, 150 mM NaCl, 0.5% NP40, 4 °C.

Assay [2] deals with T2, FLAG-FOXM1 wild type, expressed in U2OS cells (UniProt Q08050).
T2 sequence: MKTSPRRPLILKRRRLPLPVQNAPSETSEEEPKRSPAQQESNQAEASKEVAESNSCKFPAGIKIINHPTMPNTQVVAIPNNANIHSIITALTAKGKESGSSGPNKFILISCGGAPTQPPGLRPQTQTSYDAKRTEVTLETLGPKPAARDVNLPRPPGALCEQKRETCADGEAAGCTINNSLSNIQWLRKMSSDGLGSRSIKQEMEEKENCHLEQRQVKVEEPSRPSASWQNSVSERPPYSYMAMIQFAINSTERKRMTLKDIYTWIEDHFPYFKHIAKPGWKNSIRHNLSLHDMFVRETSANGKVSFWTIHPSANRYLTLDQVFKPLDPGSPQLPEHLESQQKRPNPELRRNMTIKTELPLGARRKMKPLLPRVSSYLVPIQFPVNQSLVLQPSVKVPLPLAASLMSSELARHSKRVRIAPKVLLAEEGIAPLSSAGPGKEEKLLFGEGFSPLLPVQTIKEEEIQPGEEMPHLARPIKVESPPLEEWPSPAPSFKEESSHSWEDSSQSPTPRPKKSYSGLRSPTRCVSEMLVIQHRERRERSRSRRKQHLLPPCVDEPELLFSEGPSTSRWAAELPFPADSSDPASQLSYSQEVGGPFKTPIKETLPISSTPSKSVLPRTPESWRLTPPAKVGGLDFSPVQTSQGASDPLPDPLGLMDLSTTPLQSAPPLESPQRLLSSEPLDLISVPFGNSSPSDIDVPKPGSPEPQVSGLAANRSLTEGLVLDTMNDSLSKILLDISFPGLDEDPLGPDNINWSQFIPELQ
In words: co-IP; U2OS cells transfected with FLAG-FOXM1 WT, 5KR or 5KQ; immunoprecipitation with anti-FLAG, blots with anti-FOXM1, PLK1, Cyclin B1 and CDK1 antibodies.

Assay [3] deals with T3, FLAG-FOXM1-5KR, expressed in U2OS cells (UniProt Q08050).
T3 sequence: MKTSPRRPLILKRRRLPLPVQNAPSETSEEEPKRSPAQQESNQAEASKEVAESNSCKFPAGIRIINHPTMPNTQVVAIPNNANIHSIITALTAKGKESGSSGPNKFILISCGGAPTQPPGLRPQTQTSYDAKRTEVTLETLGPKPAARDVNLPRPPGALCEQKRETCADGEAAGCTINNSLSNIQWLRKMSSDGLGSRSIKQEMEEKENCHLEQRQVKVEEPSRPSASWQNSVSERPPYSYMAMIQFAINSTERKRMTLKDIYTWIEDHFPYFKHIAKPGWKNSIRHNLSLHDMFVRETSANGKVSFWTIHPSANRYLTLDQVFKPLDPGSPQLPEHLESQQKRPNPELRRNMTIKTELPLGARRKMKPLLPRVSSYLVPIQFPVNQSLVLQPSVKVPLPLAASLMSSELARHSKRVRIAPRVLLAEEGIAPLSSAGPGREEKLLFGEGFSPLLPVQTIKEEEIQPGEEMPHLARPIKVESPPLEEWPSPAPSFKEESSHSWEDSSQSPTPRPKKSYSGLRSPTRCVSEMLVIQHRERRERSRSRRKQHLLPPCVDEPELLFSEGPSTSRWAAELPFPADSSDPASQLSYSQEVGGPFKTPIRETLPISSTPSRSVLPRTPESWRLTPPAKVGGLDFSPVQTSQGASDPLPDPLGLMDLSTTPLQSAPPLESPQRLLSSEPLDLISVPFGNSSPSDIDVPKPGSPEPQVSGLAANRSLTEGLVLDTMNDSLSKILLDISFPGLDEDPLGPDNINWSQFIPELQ
The description is as above.

Assay [4] has as its target HA-SIRT1, expressed in HEK293T cells (UniProt Q96EB6). Put plainly: co-IP; HEK293T cells transfected with HA-SIRT1 and FLAG-FOXM1; immunoprecipitation with HA or FLAG antibody (IgG as control), blots with anti-HA and anti-FLAG.

As for “p300, endogenous in U2OS cells (from UniProt Q09472 1-2414)”, the binding entry in assay [1] is “binds”.

Turning to “Cdk1-cyclin B1 complex, endogenous in U2OS cells (from UniProt P06493 1-297; P14635 1-433)”, the binding result in assay [1], in assay [2] and in assay [3] was “binds” throughout.

B1: FLAG-FOXM1 wild type, expressed in HEK293T cells (protein, UniProt Q08050 1-763)
chain: MKTSPRRPLILKRRRLPLPVQNAPSETSEEEPKRSPAQQESNQAEASKEVAESNSCKFPAGIKIINHPTMPNTQVVAIPNNANIHSIITALTAKGKESGSSGPNKFILISCGGAPTQPPGLRPQTQTSYDAKRTEVTLETLGPKPAARDVNLPRPPGALCEQKRETCADGEAAGCTINNSLSNIQWLRKMSSDGLGSRSIKQEMEEKENCHLEQRQVKVEEPSRPSASWQNSVSERPPYSYMAMIQFAINSTERKRMTLKDIYTWIEDHFPYFKHIAKPGWKNSIRHNLSLHDMFVRETSANGKVSFWTIHPSANRYLTLDQVFKPLDPGSPQLPEHLESQQKRPNPELRRNMTIKTELPLGARRKMKPLLPRVSSYLVPIQFPVNQSLVLQPSVKVPLPLAASLMSSELARHSKRVRIAPKVLLAEEGIAPLSSAGPGKEEKLLFGEGFSPLLPVQTIKEEEIQPGEEMPHLARPIKVESPPLEEWPSPAPSFKEESSHSWEDSSQSPTPRPKKSYSGLRSPTRCVSEMLVIQHRERRERSRSRRKQHLLPPCVDEPELLFSEGPSTSRWAAELPFPADSSDPASQLSYSQEVGGPFKTPIKETLPISSTPSKSVLPRTPESWRLTPPAKVGGLDFSPVQTSQGASDPLPDPLGLMDLSTTPLQSAPPLESPQRLLSSEPLDLISVPFGNSSPSDIDVPKPGSPEPQVSGLAANRSLTEGLVLDTMNDSLSKILLDISFPGLDEDPLGPDNINWSQFIPELQ
B1: the binding entry in assay [4] is listed as “binds”.
